Reference: PubChem BioAssay AID1259254 (NCATS, 2017)
Test: 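Genome-wide screen for genes that prevent DNA re-replication in cancer cells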 (primary screen). Cell system: human HCT116 colorectal cancer cells. Reagent: single siRNA against human genes. Time to read-out: 3 days. Measured: 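Imaged Hoechst DNA stain sorts each cell into a cycle phase by DNA amount; per plate, G2 fraction set to 0% for non-targeting and 100% for GMNN siRNA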. Reading the numbers: G2 robust z-score and G2 cells, % of GMNN control: higher = more G2 cells, more excess DNA replication. Active means: 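Active siRNAs have a G2 robust z of 5 or more median absolute deviations over the median, which in these data means about 38% or higher of GMNN control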.
In all, the deposit lists about 59,000 reagents; below is an unselected part. About 1,550 of all reagents (2.6%) count as active. 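G2 share is only a proxy for re-replication; each gene was hit by three separate siRNAs, and active genes were retested.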 The numbers tell different reagents against one gene apart. Not all columns of the deposit are shown. Reagent sequences are not shown. Not given: the amount of reagent.

Gene	reagent	G2 robust z-score	G2 cells, % of GMNN control	activity call
E2F6P4	1	1.19	11.3	inactive
E2F6P4	2	0.92	9.44	inactive
E2F6P4	3	0.598	7.18	inactive
POLE4	1	-0.41	0.083	inactive
POLE4	2	0.92	9.44	inactive
POLE4	3	-1.46	-7.29	inactive
ZSCAN9	1	0.492	6.43	inactive
ZSCAN9	2	0.325	5.25	inactive
ZSCAN9	3	-0.122	2.11	inactive
CTNNB1	1	-0.147	1.94	inactive
CTNNB1	2	-0.0402	2.68	inactive
CTNNB1	3	1.12	10.9	inactive
DGKA	1	0.127	3.86	inactive
DGKA	2	-1.39	-6.82	inactive
DGKA	3	-1.61	-8.36	inactive
ERMARD	1	-0.0433	2.66	inactive
ERMARD	2	-0.813	-2.75	inactive
ERMARD	3	-0.24	1.28	inactive
CDC42SE2	1	-0.349	0.512	inactive
CDC42SE2	2	-0.806	-2.7	inactive
CDC42SE2	3	2.28	19	inactive
FCER2	1	11	80.3	active
FCER2	2	4.65	35.7	inactive
FCER2	3	0.619	7.32	inactive
DLL3	1	-0.773	-2.47	inactive
DLL3	2	-0.324	0.691	inactive
DLL3	3	-0.16	1.84	inactive
PFKFB2	1	0.11	3.74	inactive
PFKFB2	2	4.62	35.5	inactive
PFKFB2	3	0.746	8.22	inactive
SNRPD3	1	2.56	20.9	inactive
SNRPD3	2	6.96	52	active
SNRPD3	3	0.903	9.32	inactive
SPAG1	1	0.692	7.84	inactive
SPAG1	2	1.26	11.8	inactive
SPAG1	3	1.11	10.8	inactive
NUP210P1	1	1.72	15.1	inactive
NUP210P1	2	-0.944	-3.67	inactive
NUP210P1	3	-0.434	-0.0844	inactive
PFN2	1	-0.39	0.224	inactive
PFN2	2	0.745	8.21	inactive
PFN2	3	0.632	7.42	inactive
LINC02453	1	0.998	9.99	inactive
LINC02453	2	-0.47	-0.342	inactive
LINC02453	3	0.227	4.57	inactive
AIG1	1	-0.643	-1.56	inactive
AIG1	2	-0.247	1.23	inactive
AIG1	3	0.593	7.14	inactive
PRMT7	1	1.73	15.1	inactive
PRMT7	2	-0.804	-2.69	inactive
PRMT7	3	1.06	10.5	inactive
MAP3K3	1	-1.05	-4.41	inactive
MAP3K3	2	-1.4	-6.86	inactive
MAP3K3	3	0.658	7.6	inactive
BTG3	1	-0.417	0.0356	inactive
BTG3	2	0.971	9.8	inactive
BTG3	3	-0.35	0.505	inactive
B4GALT1	1	-0.385	0.257	inactive
B4GALT1	2	1.21	11.5	inactive
B4GALT1	3	0.0444	3.28	inactive
ARHGAP32	1	0.0908	3.61	inactive
ARHGAP32	2	0.0724	3.48	inactive
ARHGAP32	3	-0.693	-1.91	inactive
SNAPC3	1	0.303	5.1	inactive
SNAPC3	2	-0.41	0.083	inactive
SNAPC3	3	-0.161	1.83	inactive
DHX36	1	-0.673	-1.77	inactive
DHX36	2	1.33	12.3	inactive
DHX36	3	-0.121	2.11	inactive
GSTZ1	1	-0.644	-1.56	inactive
GSTZ1	2	0.868	9.07	inactive
GSTZ1	3	-0.736	-2.21	inactive
ALG8	1	2.19	18.4	inactive
ALG8	2	-0.516	-0.666	inactive
ALG8	3	0.315	5.19	inactive
RRP9	1	-1.32	-6.34	inactive
RRP9	2	0.121	3.82	inactive
RRP9	3	2.71	22	inactive
C1orf210	1	1.62	14.4	inactive
C1orf210	2	-0.402	0.137	inactive
C1orf210	3	2.59	21.2	inactive
NHERF2	1	-1.03	-4.26	inactive
NHERF2	2	0.0731	3.48	inactive
NHERF2	3	-0.515	-0.659	inactive
KRT20	1	-0.905	-3.4	inactive
KRT20	2	2.44	20.1	inactive
KRT20	3	-0.569	-1.04	inactive
